Source: patent US20220213138A1 (UNIVERSITY OF HONG KONG, priority 2019, published 2022)

Experiment: general procedure: Fmoc solid-phase peptide synthesis; rink amide resin (GL Biochem); hydrazine 2-chlorotrityl chloride resin (loading 0.5 mmol/g); HATU/DIPEA
Conditions: for conjugation yield: conjugation step, HPLC yield; for cyclisation yield: cyclisation step

Row | Substance | conjugation yield (run 1) | cyclisation yield (run 1) | cyclisation yield (run 2) | cyclisation yield
1 | Ac-CPIEDRPMK-NH2 [cCK9′-F] | 65.06% | – | – | –
2 | Ac-CPIEDRPMK-NH2 [cCK9′-R] | 33.85% | – | – | –
3 | Ac-KSDSWHYWC-NH2 [cKC9′-F] | 32.82% | – | – | –
4 | Ac-KSDSWHYWC-NH2 [cKC9′-R] | 30.66% | – | – | –
5 | Ac-KTPSPFDSHC-NH2 [cKC10′-F] | 45.01% | – | – | –
6 | Ac-KTPSPFDSHC-NH2 [cKC10′-R] | 62.67% | – | – | –
7 | bicyclo-(CNSTKNLTFAMRSSGDYGEV)-DMAC | – | 69% yield | 32.5% | –
8 | bicyclo-(CSQGTFTSDYSKYLDSRRAQ)-DMAC | – | – | – | 65% yield
9 | bicyclo-(CSSLDEPGRGGFSSESKV)-DMAC | – | 43% yield | 43.7% | –
10 | bicyclo-(Dap-A-Hyp-C-t-A-E)-DMAC | – | 65% | 66% | –
11 | cyclo(CNSTKNLTFAMRSSGDYGEV) | – | – | – | 31%
12 | cyclo(CSSLDEPGRGGFSSESKV) | – | – | – | 68.8%
13 | cyclo-(Ac-ACFALPKG-CONH2)-DMAC | – | 48% yield | 48.6% | –
14 | cyclo-(Ac-AKVTMTCSAS-CONH2)-DMAC | – | 32% yield | 32.1% | –
15 | cyclo-(Ac-CDWLPK-CONH2)-DMAC | – | 31.9% yield | 32% | –
16 | cyclo-(Ac-ENPECILDKHVQRVM-CONH2)-DMAC | – | – | – | 35% yield
17 | cyclo-(Ac-GAQCAFLK-CONH2)-DMAC | – | – | – | 38% yield
18 | cyclo-(Ac-KAAAAACH-CONH2)-DMAC | – | 52.2% yield | 53.2% | –
19 | cyclo-(Ac-KAAAACH-CONH2)-DMAC | – | 34% yield | 34.4% | –
20 | cyclo-(Ac-KAAACH-CONH2)-DMAC | – | 47.27% yield | 54% | –
21 | cyclo-(Ac-KGEAFQC-CONH2)-DMAC | – | – | – | 36.6% yield
22 | cyclo-(Ac—NYRWRCKN-CONH2)-DMAC | – | 32% yield | 28.3% | –
23 | cyclo-(CSQGTFTSDYSKYLDSRRAQ) | – | – | – | 71.7%
